Some results were stated once for a whole list of compounds, not compound by compound.
Key:
MEK1 = assay: Raf-MEK-ERK cascade kinase assay using recombinant protein (MEK1); type: biochemical; settings: MEK1 and MEK2, relative to Trametinib
Protocol: Experimental purpose: The inhibitory activity of the compounds on MEK1 and MEK2 was measured by performing a Raf-MEK-ERK cascade kinase assay using recombinant protein.
Experimental method: 2 mg of dephosphorylated myelin basic protein (MBP) was dispersed in a 0.2 M sodium carbonate aqueous solution (pH=9.4). The mixed solution was then coated onto an enzyme-linked immunosorbent assay (ELISA) plate (U-shaped bottom plate) and left to stand overnight at 4° C. […] Compound solutions with serial concentrations were tested in triplicate wells. A mixture of 2 ng of inactivated MEK1 (or 4 ng of MEK2) and 50 ng of inactivated ERK2 was dissolved in a buffer solution (20 mM MOPS [pH=7.4], 0.1% 2-mercaptoethanol, 0.1% BSA) at room temperature, and then treated with the above serial solutions on a flat plate. The plate was covered with 1% bovine serum albumin (BSA) and pre-incubated for 10 minutes. […] After incubation at 30° C. for 30 minutes, phosphorylation of MBP by ERK was detected using peroxidase-labeled anti-phosphorylated MBP antibodies. Data curves were plotted and half maximal inhibitory concentration (IC50) values were calculated using XLFit.

[1] = system: human malignant melanoma cells (A375); assay: Anti-proliferative activity, CCK-8 assay, A375; type: cell-based; settings: all five cancer cells tested (A375, HCT-15, A549, HCT116, PC-3)
Protocol: Experimental procedure: Sample solutions with a concentration of 20 μM were prepared and serially diluted 5-fold downwards to obtain 10 concentrations: 20000 nM, 4000 nM, 800 nM, 160 nM, 32 nM, 6.4 nM, 1.28 nM, 0.256 nM, 0.0512 nM and 0.01024 nM. The sample solutions were incubated with the above cell lines for 72 h. Then 10 μL of a CCK-8 solution was then added to each well, followed by a further 2 hours incubation. An optical density (OD) value was measured at 450 nm using a fully automated microplate reader. Data were processed using GraphPad Prism 7 to calculate IC50.

Cc1c(=O)n(C)c(Nc2ccc(I)cc2F)c2c(=O)n(C3CC3)c(=O)n(-c3cccc(NC(=S)CN)c3)c12 [Compound 12]
Activity as MEK1/2 inhibitors compared to Trametinib (MEK1): more than twice that of Trametinib
In vitro cancer cell proliferation inhibitory activity compared to Trametinib [1]: higher in vitro cancer cell proliferation inhibitory activity than the reference compound, Trametinib

Cc1c(=O)n(C)c(Nc2ccc(I)cc2F)c2c(=O)n(C3CC3)c(=O)n(-c3cccc(NC(=S)C(=O)O)c3)c12 [Compound 13]
Activity as MEK1/2 inhibitors compared to Trametinib (MEK1): more than twice that of Trametinib
In vitro cancer cell proliferation inhibitory activity compared to Trametinib [1]: higher in vitro cancer cell proliferation inhibitory activity than the reference compound, Trametinib

From US12168659B2, “Thioamide derivative and preparation method and application thereof” (Yunbaiyao Zhengwu Science and Technology (Shanghai) Co., …, priority 2022, dated 2024)
